In the supplement of paper PMC10849652:
This is one part of the list.

By UniProt entry, the sequences of proteins in these tests, tags left out. Where a name states a change or a piece, a line headed by the entry shows the natural chain unless it says otherwise.
UniProt Q765P7: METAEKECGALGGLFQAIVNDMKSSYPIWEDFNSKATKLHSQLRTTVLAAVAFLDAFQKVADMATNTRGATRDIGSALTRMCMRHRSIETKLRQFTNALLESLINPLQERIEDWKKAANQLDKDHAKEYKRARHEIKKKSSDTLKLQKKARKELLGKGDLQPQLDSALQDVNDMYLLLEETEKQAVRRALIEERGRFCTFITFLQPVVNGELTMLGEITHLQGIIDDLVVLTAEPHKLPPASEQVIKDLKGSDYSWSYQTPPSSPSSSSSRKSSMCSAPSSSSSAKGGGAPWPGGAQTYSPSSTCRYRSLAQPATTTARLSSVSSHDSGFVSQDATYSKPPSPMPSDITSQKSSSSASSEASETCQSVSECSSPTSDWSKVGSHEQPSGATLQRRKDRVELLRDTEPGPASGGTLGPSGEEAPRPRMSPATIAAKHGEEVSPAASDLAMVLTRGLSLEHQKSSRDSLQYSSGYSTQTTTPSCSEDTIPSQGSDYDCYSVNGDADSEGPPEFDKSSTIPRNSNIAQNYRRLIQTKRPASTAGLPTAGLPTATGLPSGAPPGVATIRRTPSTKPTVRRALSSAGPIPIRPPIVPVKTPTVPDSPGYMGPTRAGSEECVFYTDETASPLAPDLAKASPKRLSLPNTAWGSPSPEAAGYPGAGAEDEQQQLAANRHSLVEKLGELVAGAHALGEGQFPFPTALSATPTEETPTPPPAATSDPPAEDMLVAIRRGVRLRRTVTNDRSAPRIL
UniProt P82909: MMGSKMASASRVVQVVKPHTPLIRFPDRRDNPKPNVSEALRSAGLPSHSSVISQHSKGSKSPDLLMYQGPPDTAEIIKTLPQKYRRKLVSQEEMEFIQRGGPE
UniProt Q13614, whole entry, looked up: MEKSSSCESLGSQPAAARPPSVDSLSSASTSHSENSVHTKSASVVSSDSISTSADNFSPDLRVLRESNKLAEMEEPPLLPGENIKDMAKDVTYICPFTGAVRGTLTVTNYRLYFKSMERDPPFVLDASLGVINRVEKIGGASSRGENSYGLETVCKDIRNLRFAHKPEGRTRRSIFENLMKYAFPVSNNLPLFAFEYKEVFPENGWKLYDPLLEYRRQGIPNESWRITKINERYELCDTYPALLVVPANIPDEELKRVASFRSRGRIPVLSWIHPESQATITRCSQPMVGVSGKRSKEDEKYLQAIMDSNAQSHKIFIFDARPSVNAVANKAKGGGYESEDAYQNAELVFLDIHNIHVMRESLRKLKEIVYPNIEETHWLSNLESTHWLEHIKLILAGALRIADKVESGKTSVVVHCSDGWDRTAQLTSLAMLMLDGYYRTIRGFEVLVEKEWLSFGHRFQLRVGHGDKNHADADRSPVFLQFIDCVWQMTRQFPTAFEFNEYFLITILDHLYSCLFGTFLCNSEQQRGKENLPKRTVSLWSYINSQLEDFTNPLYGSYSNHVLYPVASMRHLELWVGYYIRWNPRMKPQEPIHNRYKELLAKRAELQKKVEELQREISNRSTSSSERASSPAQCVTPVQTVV
UniProt P49914: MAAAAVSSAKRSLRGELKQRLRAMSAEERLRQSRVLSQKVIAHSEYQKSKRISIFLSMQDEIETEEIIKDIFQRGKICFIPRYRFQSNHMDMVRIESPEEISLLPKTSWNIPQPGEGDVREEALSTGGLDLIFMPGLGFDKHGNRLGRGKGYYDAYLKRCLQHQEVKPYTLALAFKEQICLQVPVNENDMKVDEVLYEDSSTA
UniProt P42285: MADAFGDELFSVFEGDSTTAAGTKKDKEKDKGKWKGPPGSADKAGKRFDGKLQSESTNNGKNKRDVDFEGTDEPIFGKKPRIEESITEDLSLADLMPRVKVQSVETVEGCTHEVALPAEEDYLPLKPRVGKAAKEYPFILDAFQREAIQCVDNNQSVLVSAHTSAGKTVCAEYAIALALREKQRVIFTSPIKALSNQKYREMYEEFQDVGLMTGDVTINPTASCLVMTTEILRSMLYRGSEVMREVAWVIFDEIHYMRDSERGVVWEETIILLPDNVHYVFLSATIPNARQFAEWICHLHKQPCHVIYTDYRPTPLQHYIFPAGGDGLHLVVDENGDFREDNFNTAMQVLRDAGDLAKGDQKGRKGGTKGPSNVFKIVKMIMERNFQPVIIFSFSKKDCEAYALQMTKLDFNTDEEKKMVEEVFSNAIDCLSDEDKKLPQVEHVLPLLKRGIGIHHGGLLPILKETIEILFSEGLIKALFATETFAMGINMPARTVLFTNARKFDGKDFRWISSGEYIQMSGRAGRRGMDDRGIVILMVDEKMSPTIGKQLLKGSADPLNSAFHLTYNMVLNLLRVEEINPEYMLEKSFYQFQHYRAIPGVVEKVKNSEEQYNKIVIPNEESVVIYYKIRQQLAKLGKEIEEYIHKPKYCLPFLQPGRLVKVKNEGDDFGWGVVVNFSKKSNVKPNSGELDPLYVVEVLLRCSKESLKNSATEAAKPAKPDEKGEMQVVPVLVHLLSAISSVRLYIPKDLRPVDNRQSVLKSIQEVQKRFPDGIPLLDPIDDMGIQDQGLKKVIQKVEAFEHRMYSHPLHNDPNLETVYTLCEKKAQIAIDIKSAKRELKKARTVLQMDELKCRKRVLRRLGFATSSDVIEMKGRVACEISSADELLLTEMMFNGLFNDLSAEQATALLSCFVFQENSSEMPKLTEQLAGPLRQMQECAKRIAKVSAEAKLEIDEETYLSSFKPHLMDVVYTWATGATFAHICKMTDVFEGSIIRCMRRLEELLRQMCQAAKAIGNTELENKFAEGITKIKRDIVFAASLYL
UniProt Q9UDX5: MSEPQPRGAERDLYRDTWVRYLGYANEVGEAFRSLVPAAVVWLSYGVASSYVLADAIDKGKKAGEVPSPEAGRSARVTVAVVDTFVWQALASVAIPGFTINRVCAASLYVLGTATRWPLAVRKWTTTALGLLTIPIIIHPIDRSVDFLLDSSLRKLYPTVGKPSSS
UniProt P55157: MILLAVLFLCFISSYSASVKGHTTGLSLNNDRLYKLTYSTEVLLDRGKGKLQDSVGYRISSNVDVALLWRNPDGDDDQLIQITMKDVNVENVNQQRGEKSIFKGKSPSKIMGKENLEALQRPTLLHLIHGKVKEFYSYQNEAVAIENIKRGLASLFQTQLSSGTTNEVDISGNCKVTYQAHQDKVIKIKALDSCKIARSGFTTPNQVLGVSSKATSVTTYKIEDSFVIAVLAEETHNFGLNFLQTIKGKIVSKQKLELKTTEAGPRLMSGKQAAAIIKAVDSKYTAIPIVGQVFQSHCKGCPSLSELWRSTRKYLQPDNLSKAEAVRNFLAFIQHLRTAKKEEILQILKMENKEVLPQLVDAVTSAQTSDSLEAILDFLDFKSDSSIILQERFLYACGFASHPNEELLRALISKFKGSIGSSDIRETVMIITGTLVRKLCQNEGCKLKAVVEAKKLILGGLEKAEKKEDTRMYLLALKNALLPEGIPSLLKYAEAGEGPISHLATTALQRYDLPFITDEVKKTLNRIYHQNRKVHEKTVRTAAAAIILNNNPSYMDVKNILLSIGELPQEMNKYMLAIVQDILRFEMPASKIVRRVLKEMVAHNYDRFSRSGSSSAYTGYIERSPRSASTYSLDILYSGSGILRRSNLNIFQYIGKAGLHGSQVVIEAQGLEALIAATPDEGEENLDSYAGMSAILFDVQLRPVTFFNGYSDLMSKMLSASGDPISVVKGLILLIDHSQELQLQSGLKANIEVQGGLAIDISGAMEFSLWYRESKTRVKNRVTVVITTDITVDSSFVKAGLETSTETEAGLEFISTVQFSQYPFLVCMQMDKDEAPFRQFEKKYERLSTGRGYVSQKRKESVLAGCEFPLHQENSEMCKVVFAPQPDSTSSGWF
UniProt P13995: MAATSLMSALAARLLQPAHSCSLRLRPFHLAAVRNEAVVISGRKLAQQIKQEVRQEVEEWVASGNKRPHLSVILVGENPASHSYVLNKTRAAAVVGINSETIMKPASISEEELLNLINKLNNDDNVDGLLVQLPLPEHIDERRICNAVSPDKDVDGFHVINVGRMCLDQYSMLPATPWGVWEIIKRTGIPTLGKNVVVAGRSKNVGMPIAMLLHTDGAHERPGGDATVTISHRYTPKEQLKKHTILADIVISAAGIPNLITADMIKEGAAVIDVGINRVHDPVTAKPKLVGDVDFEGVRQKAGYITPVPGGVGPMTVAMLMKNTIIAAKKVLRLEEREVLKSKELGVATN
UniProt Q9ULH7: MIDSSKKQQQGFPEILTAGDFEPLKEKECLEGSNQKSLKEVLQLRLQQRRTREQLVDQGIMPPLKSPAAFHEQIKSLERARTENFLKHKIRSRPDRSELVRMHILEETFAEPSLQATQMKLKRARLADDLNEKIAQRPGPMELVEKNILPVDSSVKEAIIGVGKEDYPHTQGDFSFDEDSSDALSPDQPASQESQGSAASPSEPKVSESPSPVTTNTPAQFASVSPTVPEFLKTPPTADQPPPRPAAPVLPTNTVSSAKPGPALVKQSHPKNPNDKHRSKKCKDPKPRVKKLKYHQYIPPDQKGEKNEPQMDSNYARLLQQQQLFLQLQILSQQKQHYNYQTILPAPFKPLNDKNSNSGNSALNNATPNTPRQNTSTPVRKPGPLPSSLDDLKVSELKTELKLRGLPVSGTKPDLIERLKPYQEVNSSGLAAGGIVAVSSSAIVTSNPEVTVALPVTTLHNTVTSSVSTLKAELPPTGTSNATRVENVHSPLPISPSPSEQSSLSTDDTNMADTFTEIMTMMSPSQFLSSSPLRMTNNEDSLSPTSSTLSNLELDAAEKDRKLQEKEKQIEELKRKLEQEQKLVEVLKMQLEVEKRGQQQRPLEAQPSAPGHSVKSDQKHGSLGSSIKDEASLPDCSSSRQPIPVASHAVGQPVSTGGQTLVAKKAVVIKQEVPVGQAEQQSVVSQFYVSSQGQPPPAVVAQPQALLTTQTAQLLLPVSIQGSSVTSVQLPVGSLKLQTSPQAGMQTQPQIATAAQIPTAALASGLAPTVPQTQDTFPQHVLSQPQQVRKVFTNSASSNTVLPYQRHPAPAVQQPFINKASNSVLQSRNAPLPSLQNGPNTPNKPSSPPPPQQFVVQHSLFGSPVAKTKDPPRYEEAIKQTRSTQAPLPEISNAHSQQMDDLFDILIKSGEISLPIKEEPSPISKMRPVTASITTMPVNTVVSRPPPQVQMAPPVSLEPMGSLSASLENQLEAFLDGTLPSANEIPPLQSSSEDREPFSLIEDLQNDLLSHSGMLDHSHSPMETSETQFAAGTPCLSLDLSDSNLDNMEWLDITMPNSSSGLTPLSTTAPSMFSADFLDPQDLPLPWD
UniProt P00403, whole entry, looked up: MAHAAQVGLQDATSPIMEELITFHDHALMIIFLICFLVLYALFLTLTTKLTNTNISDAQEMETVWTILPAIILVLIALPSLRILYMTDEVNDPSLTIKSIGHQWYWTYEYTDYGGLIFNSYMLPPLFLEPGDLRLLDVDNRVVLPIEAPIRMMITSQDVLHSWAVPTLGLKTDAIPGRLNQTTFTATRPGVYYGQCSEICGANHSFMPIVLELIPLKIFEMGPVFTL
UniProt Q13505: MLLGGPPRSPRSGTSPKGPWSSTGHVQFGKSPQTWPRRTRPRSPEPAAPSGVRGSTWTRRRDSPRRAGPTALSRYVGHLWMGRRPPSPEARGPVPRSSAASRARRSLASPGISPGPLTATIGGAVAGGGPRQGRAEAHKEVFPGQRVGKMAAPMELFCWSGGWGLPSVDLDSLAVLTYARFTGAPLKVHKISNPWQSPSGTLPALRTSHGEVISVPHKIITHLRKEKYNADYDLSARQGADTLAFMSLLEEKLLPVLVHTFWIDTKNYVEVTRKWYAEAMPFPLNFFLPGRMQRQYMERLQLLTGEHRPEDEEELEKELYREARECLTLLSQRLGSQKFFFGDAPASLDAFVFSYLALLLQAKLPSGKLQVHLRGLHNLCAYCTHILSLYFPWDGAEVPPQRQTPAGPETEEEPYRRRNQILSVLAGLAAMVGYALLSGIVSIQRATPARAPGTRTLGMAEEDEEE
UniProt Q15390: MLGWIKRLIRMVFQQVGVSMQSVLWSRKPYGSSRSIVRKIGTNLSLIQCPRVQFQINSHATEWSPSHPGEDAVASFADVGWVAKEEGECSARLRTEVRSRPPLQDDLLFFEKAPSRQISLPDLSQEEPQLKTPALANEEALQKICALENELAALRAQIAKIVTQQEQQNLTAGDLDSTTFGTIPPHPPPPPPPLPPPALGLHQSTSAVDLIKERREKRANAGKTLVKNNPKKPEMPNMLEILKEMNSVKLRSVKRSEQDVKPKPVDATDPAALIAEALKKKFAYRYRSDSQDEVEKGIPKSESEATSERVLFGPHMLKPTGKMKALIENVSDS
UniProt Q15800: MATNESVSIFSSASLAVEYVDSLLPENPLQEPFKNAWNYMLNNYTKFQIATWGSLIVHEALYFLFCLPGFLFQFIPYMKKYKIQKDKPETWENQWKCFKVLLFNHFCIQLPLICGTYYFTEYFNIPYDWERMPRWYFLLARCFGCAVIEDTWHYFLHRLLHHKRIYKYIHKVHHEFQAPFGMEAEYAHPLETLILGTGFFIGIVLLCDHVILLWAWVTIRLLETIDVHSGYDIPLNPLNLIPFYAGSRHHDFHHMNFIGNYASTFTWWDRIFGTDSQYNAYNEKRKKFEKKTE

Key:
Experiment in all cases: log2 fold change, soluble protein after heating vs DMSO (PISA); higher = thermal stabilisation; K562 lysate, 10 uM; active = over 0.2 and 3.5 SD of the protein, either way, in both replicates (recomputed)
[1] = compound: C1=CC=C(C=C1)[C@H](COC2=CC3=C(C=C2)NC(=O)N3)NC(=O)C4=CC=CN(C4=O)CC5=CC(=C(C=C5)F)F
Procedure, shortened: (§1)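 K562 pellets were dounce-homogenised in PBS pH 7.4 containing 1 mM MgCl2, and the crude extract, at 1 mg/mL protein, was exposed to 10 μM compound for 30 min. Aliquots were heated for 3 min across 48°C-58°C, pooled, brought to 0.5% NP-40 at 4°C and spun at 21,000xg for 90 min, with the supernatant taken as soluble protein. TMTpro 16plex LC-MS/MS with equalised channel sums quantified that protein. Values are log-two fold changes in thermal stability relative to solvent controls, taken from duplicates.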

[2] = compound: CC1=C(SC2=C1C(=N[C@H](C3=NN=C(N32)C)CC(=O)N)C4=CC=C(C=C4)Cl)C
Procedure, shortened: as §1

[3] = compound: CC1=C2C(=CC=C1)N=C(N(C2=O)C3=CC=CC=C3C)CN4C=NC5=C(N=CN=C54)N
Procedure, shortened: as §1

[4] = compound: Cc1sc2c(c1C)C(c1ccc(Cl)cc1)=N[C@@H](CC(=O)OC(C)(C)C)c1nnc(C)n1-2
Procedure, shortened: as §1

[5] = compound: c1ccc([C@@H]2C[C@H]2NC2CCNCC2)cc1
Procedure, shortened: as §1

Measured: log2 fold change

MTSS2 (UniProt Q765P7)
inactive: [1] 0.023 | [2] 0.01 | [3] -0.022 | [4] -0.035 | [5] 0.002

MRPS36 (UniProt P82909)
inactive: [1] 0.091 | [2] -0.033 | [3] -0.071 | [4] 0.234 | [5] -0.076

MRPS25 (UniProt P82663)
inactive: [1] 0.081 | [2] 0.012 | [3] 0.029 | [4] 0.036 | [5] 0.105

MRPS18C (UniProt Q9Y3D5)
inactive: [1] -0.072 | [2] 0.048 | [3] 0.045 | [4] -0.109 | [5] -0.005

MTRR isoform 1 (UniProt Q9UBK8)
inactive: [1] -0.088 | [2] 0.016 | [3] -0.006 | [4] -0.031 | [5] 0.024

MTMR2 (UniProt Q13614)
inactive: [1] 0.009 | [2] 0.033 | [3] -0.003 | [4] 0.013 | [5] 0.015

MTDH (UniProt E5RJU9)
inactive: [1] 0.232 | [2] -0.001 | [3] -0.062 | [4] 0.053 | [5] -0.096

MRPS9 (UniProt P82933)
inactive: [1] 0.025 | [2] 0.053 | [3] 0.055 | [4] 0.008 | [5] 0.05

MRPL51 (UniProt Q4U2R6)
inactive: [1] -0.001 | [2] -0.053 | [3] 0.043 | [4] 0.066 | [5] -0.109

MRPL39 isoform 2 (UniProt Q9NYK5)
inactive: [1] 0.02 | [2] 0.055 | [3] 0.011 | [4] 0.019 | [5] 0.078

MTMR12 (UniProt Q9C0I1)
inactive: [1] 0.02 | [2] 0.03 | [3] 0.004 | [4] -0.029 | [5] -0.017

MRPL35 (UniProt Q9NZE8)
inactive: [1] -0.028 | [2] -0.002 | [3] 0.331 | [4] -0.04 | [5] 0

MTHFS (UniProt P49914)
inactive: [1] 0.064 | [2] 0.008 | [3] 0.011 | [4] -0.04 | [5] -0.01

MRPS35 (UniProt P82673)
inactive: [1] 0.034 | [2] -0.023 | [3] 0.009 | [4] 0.033 | [5] 0.039

MT-ND5 (UniProt P03915)
inactive: [1] -0.122 | [2] -0.018 | [3] 0.062 | [4] 0.092 | [5] 0.01

MTHFR (UniProt F8W9T8)
inactive: [1] -0.046 | [2] 0.055

MRPL41 (UniProt Q8IXM3)
inactive: [1] -0.03 | [2] 0.029 | [3] 0.041 | [4] 0.011 | [5] -0.009

MRPL48 (UniProt Q96GC5)
inactive: [1] -0.049 | [2] 0.065 | [3] -0.043 | [4] 0.016 | [5] 0.063

MRPS5 (UniProt P82675)
inactive: [1] 0.037 | [2] -0.047 | [3] 0.099 | [4] 0.069 | [5] 0.034

MTREX (UniProt P42285)
inactive: [1] -0.008 | [2] -0.002 | [3] 0.007 | [4] -0.011 | [5] -0.005

MTFP1 (UniProt Q9UDX5)
inactive: [1] 0.005 | [2] -0.058 | [3] 0.03 | [4] 0.079 | [5] -0.222

MTTP (UniProt P55157)
inactive: [1] -0.074 | [2] 0.18

MTA1 (UniProt Q13330)
inactive: [1] 0.005 | [2] -0.01 | [3] 0.01 | [4] 0.055 | [5] 0.012

MSN (UniProt P26038)
inactive: [1] 0.003 | [2] -0.005 | [3] 0.01 | [4] -0.005 | [5] 0.008

MTO1 isoform 4 (UniProt Q9Y2Z2)
inactive: [1] -0.24 | [2] 0.04 | [3] 0.031 | [4] 0.063 | [5] 0.019

MRTO4 (UniProt Q9UKD2)
inactive: [1] 0.003 | [2] 0.032 | [3] 0.024 | [4] 0.056 | [5] 0.005

MRPS23 (UniProt Q9Y3D9)
inactive: [1] -0.021 | [2] 0 | [3] 0.026 | [4] 0.037 | [5] 0.198

MRPL57 (UniProt Q9BQC6)
inactive: [1] -0.049 | [2] 0.038 | [3] -0.111 | [4] 0.027 | [5] -0.061

MUC1, A0A087WWM1
inactive: [1] -0.045 | [2] -0.082 | [3] -0.004 | [4] -0.065 | [5] 0.015

MRPL28 (UniProt Q13084)
inactive: [1] -0.002 | [2] -0.062 | [3] -0.026 | [4] 0.066 | [5] 0.356

MTPN (UniProt P58546)
inactive: [1] 0.045 | [2] -0.046 | [3] -0.001 | [4] -0.005 | [5] 0.103

MRPL37 (UniProt Q9BZE1)
inactive: [1] 0.004 | [2] -0.014 | [3] 0.035 | [4] 0.009 | [5] -0.007

Taken from the results shown (3 entries):
MRPS23 (UniProt Q9Y3D9)
inactive: [1] -0.021 | [2] 0 | [3] 0.026 | [4] 0.037 | [5] 0.198

MRPL57 (UniProt Q9BQC6)
inactive: [1] -0.049 | [2] 0.038 | [3] -0.111 | [4] 0.027 | [5] -0.061

MUC1, A0A087WWM1
inactive: [1] -0.045 | [2] -0.082 | [3] -0.004 | [4] -0.065 | [5] 0.015

Reprinted at random: two entries already listed
MTMR12 (UniProt Q9C0I1)
inactive: [1] 0.02 | [2] 0.03 | [3] 0.004 | [4] -0.029 | [5] -0.017

MRTO4 (UniProt Q9UKD2)
inactive: [1] 0.003 | [2] 0.032 | [3] 0.024 | [4] 0.056 | [5] 0.005

(further entries)

MTRES1 (UniProt Q9P0P8)
inactive: [1] 0.066 | [2] 0.083 | [3] 0.034 | [4] 0.058

MRPS10 (UniProt P82664)
inactive: [1] 0.072 | [2] 0.021 | [3] 0.092 | [4] -0.022 | [5] 0.022

MRPL4 (UniProt Q9BYD3)
inactive: [1] 0.027 | [2] 0.026 | [3] 0.019 | [4] 0.006 | [5] 0.082

MTRF1L (UniProt Q9UGC7)
inactive: [1] -0.024 | [2] -0.022 | [3] -0.155 | [4] -0.02 | [5] -0.075

MTCL1 (UniProt Q9Y4B5)
inactive: [1] 0.045 | [2] 0.02 | [3] 0.121 | [4] -0.066

MRPL32 (UniProt Q9BYC8)
inactive: [1] 0.031 | [2] 0.008 | [3] -0.044 | [4] -0.063 | [5] -0.054

MTHFD2 (UniProt P13995)
inactive: [1] 0.006 | [2] -0.022 | [3] 0.004 | [4] 0.033 | [5] -0.028

MRTFB isoform 5 (UniProt Q9ULH7)
inactive: [1] 0.016 | [2] -0.015 | [3] 0.002 | [4] 0.033 | [5] -0.019

MRPS21 (UniProt P82921)
inactive: [1] -0.128 | [2] 0.12 | [3] 0.163 | [4] -0.06 | [5] -0.006

MT-CO2 (UniProt P00403)
inactive: [1] -0.111 | [2] 0.013 | [3] -0.001 | [4] -0.031 | [5] 0.14

MRPL40 (UniProt Q9NQ50)
inactive: [1] -0.013 | [2] 0.018 | [3] -0.082 | [4] -0.085 | [5] 0.032

MTA3 (UniProt Q9BTC8)
inactive: [1] -0.006 | [2] -0.047 | [3] 0.002 | [4] 0.014 | [5] -0.001

MTX1 (UniProt Q13505)
inactive: [1] 0.026 | [2] -0.036 | [3] -0.009 | [4] 0.011 | [5] -0.037

MRPL55 isoform 2 (UniProt Q7Z7F7)
inactive: [1] -0.044 | [2] 0.089 | [3] 0.038 | [4] 0.006 | [5] 0.062

MRPS22 (UniProt P82650)
inactive: [1] -0.011 | [2] 0.067 | [3] 0.078 | [4] 0.057 | [5] 0.035

MRPL52 (UniProt Q86TS9)
inactive: [1] -0.035 | [2] 0.062 | [3] -0.023 | [4] -0.042 | [5] -0.036

MTFR1 (UniProt Q15390)
inactive: [1] 0.03 | [2] -0.003 | [3] -0.137 | [4] -0.066 | [5] -0.044

MRPS6 (UniProt P82932)
inactive: [1] -0.016 | [2] 0.049 | [3] 0.041 | [4] -0.065 | [5] 0.018

MRPL42 (UniProt Q9Y6G3)
inactive: [1] 0.007 | [2] -0.011 | [3] -0.081 | [4] 0.028 | [5] -0.036

MRPS12 (UniProt O15235)
inactive: [1] 0 | [2] 0.019 | [3] 0.053 | [4] 0.039 | [5] 0.026

MSMO1 (UniProt Q15800)
inactive: [1] 0.018 | [2] 0.033 | [3] 0.046 | [4] -0.078 | [5] -0.018

MT-CYB (UniProt P00156)
inactive: [1] 0.062 | [2] -0.091 | [3] -0.052 | [4] -0.132 | [5] -0.468
